Data: doi:10.1101/2021.10.01.462786
No constants are given. Whether binding was seen depends on the method and setting. Binding seen in cells or lysates may run through a third protein. Some binding calls cover weakened binding; strength is not graded here.

Sequences of proteins named here, by UniProt entry; tags and fusion partners are left off. Residues count along the entry.
UniProt P36222, residues 22-383: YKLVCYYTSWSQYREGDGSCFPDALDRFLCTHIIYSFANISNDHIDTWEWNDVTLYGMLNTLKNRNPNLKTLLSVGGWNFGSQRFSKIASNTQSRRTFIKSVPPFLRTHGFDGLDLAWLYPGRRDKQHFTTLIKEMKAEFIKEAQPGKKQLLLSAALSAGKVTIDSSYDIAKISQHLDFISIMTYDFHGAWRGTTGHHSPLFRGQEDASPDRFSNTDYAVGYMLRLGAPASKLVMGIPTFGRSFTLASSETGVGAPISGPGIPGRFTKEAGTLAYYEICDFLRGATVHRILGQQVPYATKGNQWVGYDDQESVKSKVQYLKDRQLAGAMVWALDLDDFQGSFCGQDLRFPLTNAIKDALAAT
UniProt P16070, residues 21-742: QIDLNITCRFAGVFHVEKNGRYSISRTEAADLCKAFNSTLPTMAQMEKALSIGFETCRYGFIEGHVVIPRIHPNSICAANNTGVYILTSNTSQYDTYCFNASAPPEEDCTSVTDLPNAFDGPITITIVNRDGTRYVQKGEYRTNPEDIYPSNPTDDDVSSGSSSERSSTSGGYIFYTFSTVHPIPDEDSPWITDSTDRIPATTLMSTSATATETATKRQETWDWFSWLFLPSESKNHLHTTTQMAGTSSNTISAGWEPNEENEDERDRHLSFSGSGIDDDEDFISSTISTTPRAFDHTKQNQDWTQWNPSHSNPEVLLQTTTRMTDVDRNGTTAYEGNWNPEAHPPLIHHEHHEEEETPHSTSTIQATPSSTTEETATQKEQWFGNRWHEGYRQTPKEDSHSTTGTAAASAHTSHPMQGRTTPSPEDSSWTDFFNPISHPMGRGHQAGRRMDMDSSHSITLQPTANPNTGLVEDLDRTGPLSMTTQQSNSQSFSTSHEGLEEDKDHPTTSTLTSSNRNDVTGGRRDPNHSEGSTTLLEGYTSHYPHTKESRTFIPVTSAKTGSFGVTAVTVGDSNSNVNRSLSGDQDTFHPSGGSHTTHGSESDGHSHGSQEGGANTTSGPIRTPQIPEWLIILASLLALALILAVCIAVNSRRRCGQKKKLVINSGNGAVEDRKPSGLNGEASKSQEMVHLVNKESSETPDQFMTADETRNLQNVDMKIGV

Molecular target: Chitinase 3-like protein 1 (Chi3l1), recombinant (UniProt P36222)
Test: co-IP

binding: binds
Substance: CD44 (from UniProt P16070 21-742) (receptor)
